Data source: PubChem BioAssay AID1259323 (Peter MacCallum Cancer Centre, 2017)
Screen: 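Kinase knock-downs that weaken TRPV4 calcium entry after PAR2 activation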 (primary screen). Cell system: human HEK293 cells stably carrying inducible TRPV4. Reagent: siRNA pool against human genes. Treatment: PAR2 activation; agonist identity and dose not given. Detection: 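Real-time Fura-2 calcium after PAR2 activation; early peak and later plateau each as % of mock-transfected wells on the plate, mean of two plates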. Direction: TRPV4 plateau calcium, % of mock: higher = stronger sustained TRPV4 calcium entry than mock; PAR2 peak calcium, % of mock: higher = stronger early PAR2 calcium response than mock. Active means: 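Active if plateau calcium is under 90% of mock and early peak calcium stays over 79% of mock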.
Here is one part, drawn at random, of 715 deposited reagents. 91 of them (13%) count as active. 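Active pools lower the sustained TRPV4 phase but spare the early PAR2 peak; PAR2 agonist and dose are not stated; pools repeat across wells.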 Entries without a mark were called inactive. The record does not give: the amount of reagent, the time to read-out.

gene symbol,"TRPV4 plateau calcium, % of mock","PAR2 peak calcium, % of mock"
DSTYK (dual serine/threonine and tyrosine protein kinase),94.1,94.5
PRKAR1A,98.9,83.3
MAPK4 (mitogen-activated protein kinase 4),98.2,97.6
FGFRL1 (fibroblast growth factor receptor like 1),115,105
MAP3K15 (mitogen-activated protein kinase kinase kinase 15),103,101
MATK (megakaryocyte-associated tyrosine kinase),106,101
WHR1 (winged helix repair factor 1),92,91.2
CKB (creatine kinase B),97.2,98.9
AK1 (adenylate kinase 1),114,105
MYO3B (myosin IIIB),115,107
ERN2 (endoplasmic reticulum to nucleus signaling 2),105,101
PRP4K (pre-mRNA processing factor kinase PRP4K),99.3,98.4
CDK13 (cyclin dependent kinase 13),96.9,97.9
"MOS (MOS proto-oncogene, serine/threonine kinase)",95.7,96.9
CASK (calcium/calmodulin dependent serine protein kinase),102,99.7
PXK (PX domain containing serine/threonine kinase like),92.3,98.9
AKT3 (AKT serine/threonine kinase 3),108,107
NEK8 (NIMA related kinase 8),86.1,74
MARK3 (microtubule affinity regulating kinase 3),112,98.2
FLT1 (fms related receptor tyrosine kinase 1),90.4,96.6
TYK2 (tyrosine kinase 2),102,104
ROCK2 (Rho associated coiled-coil containing protein kinase 2),92.4,97
EGFR (epidermal growth factor receptor),109,104
SRMS,82.4 (active),92
FN3K (fructosamine 3 kinase),95.3,92
PDGFRB (platelet derived growth factor receptor beta),91.7,87.4
KALRN (kalirin RhoGEF kinase),87.6 (active),97.1
RSKR (ribosomal protein S6 kinase related),101,97.9
HK1 (hexokinase 1),105,102
STK38L (serine/threonine kinase 38 like),102,99.7
MAPK13 (mitogen-activated protein kinase 13),86.2 (active),98.1
ITPKA (inositol-trisphosphate 3-kinase A),102,99.9
EIF2AK2 (eukaryotic translation initiation factor 2 alpha kinase 2),94.3,96
TSSK3 (testis specific serine kinase 3),95.4,93
CDK2 (cyclin dependent kinase 2),102,100
DUSP21 (dual specificity phosphatase 21),102,95.4
MAPK14 (mitogen-activated protein kinase 14),99.3,98.4
RPS6KA5 (ribosomal protein S6 kinase A5),96.2,100
"PKDCC (protein kinase domain containing, cytoplasmic)",111,105
PKIB (cAMP-dependent protein kinase inhibitor beta),98.3,102
GTF2H1 (general transcription factor IIH subunit 1),91.5,91.6
EPHA1 (EPH receptor A1),108,105
RBKS (ribokinase),94.9,96.2

Individual results from above.
Under “PAR2 peak calcium, % of mock”, CASK (calcium/calmodulin dependent serine protein kinase) reads 99.7
Entry of PDGFRB (platelet derived growth factor receptor beta) under “TRPV4 plateau calcium, % of mock”: 91.7
For “TRPV4 plateau calcium, % of mock”, MAP3K15 (mitogen-activated protein kinase kinase kinase 15) has 103
RSKR (ribosomal protein S6 kinase related), PAR2 peak calcium, % of mock → 97.9

The listing continues:
gene symbol,"TRPV4 plateau calcium, % of mock","PAR2 peak calcium, % of mock"
SMG1,89.6 (active),95.8
MAK (male germ cell associated kinase),101,97.8
LMBR1 (limb development membrane protein 1),107,96.1
FGFR4 (fibroblast growth factor receptor 4),81.9 (active),93.9
PRKG2 (protein kinase cGMP-dependent 2),92.8,90.2
NTRK3 (neurotrophic receptor tyrosine kinase 3),99.9,97.1
NEK11 (NIMA related kinase 11),102,98.9
RIPK4 (receptor interacting serine/threonine kinase 4),104,99.6
"PIKFYVE (phosphoinositide kinase, FYVE-type zinc finger containing)",94.3,103
CDKN1A (cyclin dependent kinase inhibitor 1A),86.6 (active),88.8
PTK6 (protein tyrosine kinase 6),117,114
SIK3 (SIK family kinase 3),86.2 (active),93.4
AKT2 (AKT serine/threonine kinase 2),92.5,93.1
CSF1R (colony stimulating factor 1 receptor),102,99.3
MAPK6 (mitogen-activated protein kinase 6),107,98.3
DGKB (diacylglycerol kinase beta),95,99.3
AKT1 (AKT serine/threonine kinase 1),118,115
TRIO (trio Rho guanine nucleotide exchange factor),88.4 (active),85.2
STK32A (serine/threonine kinase 32A),104,102
LATS1 (large tumor suppressor kinase 1),110,102
PDK2 (pyruvate dehydrogenase kinase 2),93.4,87.8
IP6K3 (inositol hexakisphosphate kinase 3),90.7,102
PRKAG1 (protein kinase AMP-activated non-catalytic subunit gamma 1),91.5,89.3
GRK3 (G protein-coupled receptor kinase 3),111,112
ACVR1B (activin A receptor type 1B),109,102
RIPK1 (receptor interacting serine/threonine kinase 1),99.5,93
ACVR1C (activin A receptor type 1C),109,99.8
JAK2 (Janus kinase 2),115,106
CDKL5 (cyclin dependent kinase like 5),122,115
HIPK3 (homeodomain interacting protein kinase 3),101,98.6
TAB1 (TGF-beta activated kinase 1 (MAP3K7) binding protein 1),93.7,94.6
GNE,88.3 (active),96.5
"PCK2 (phosphoenolpyruvate carboxykinase 2, mitochondrial)",107,99.7
DGKD (diacylglycerol kinase delta),108,105
STK3 (serine/threonine kinase 3),112,99.6
RFK (riboflavin kinase),109,103
RNASEL (ribonuclease L),113,105
MARK2 (microtubule affinity regulating kinase 2),114,108
PCK1 (phosphoenolpyruvate carboxykinase 1),93.8,97.4
UCK1 (uridine-cytidine kinase 1),111,108
PIP5KL1 (phosphatidylinositol-4-phosphate 5-kinase like 1),103,99.9
TNK2 (tyrosine kinase non receptor 2),93.4,90.8
CAMK1 (calcium/calmodulin dependent protein kinase I),114,105
MAP3K3 (mitogen-activated protein kinase kinase kinase 3),102,101
"PRKDC (protein kinase, DNA-activated, catalytic subunit)",97.8,97.5
STK24 (serine/threonine kinase 24),110,111
ETNK2 (ethanolamine kinase 2),91.6,87.8
UCKL1 (uridine-cytidine kinase 1 like 1),85 (active),87.5
NRK (Nik related kinase),99,107
MARK1 (microtubule affinity regulating kinase 1),108,104
PAPSS1 (3'-phosphoadenosine 5'-phosphosulfate synthase 1),92.9,95.3
PDXK (pyridoxal kinase),106,91
TESK1 (testis associated actin remodelling kinase 1),88.8 (active),93
"RELA (RELA proto-oncogene, NF-kB subunit)",98.6,96.4
IRAK1 (interleukin 1 receptor associated kinase 1),99.6,97.2
PIP4K2A (phosphatidylinositol-5-phosphate 4-kinase type 2 alpha),95.5,90.8
CDK9 (cyclin dependent kinase 9),94.3,98.4
TWF1 (twinfilin actin binding protein 1),105,103
CDADC1 (cytidine and dCMP deaminase domain containing 1),109,106
IKBKE (inhibitor of nuclear factor kappa B kinase subunit epsilon),102,101
AAK1 (AP2 associated kinase 1),124,106
"YES1 (YES proto-oncogene 1, Src family tyrosine kinase)",102,96.8
CHKB (choline kinase beta),103,103
"GUCY2F (guanylate cyclase 2F, retinal)",111,104
